# Data as given in paper PMC10929186.
# The chains behind the UniProt entries cited, without tags or fusion partners.
# UniProt P07356: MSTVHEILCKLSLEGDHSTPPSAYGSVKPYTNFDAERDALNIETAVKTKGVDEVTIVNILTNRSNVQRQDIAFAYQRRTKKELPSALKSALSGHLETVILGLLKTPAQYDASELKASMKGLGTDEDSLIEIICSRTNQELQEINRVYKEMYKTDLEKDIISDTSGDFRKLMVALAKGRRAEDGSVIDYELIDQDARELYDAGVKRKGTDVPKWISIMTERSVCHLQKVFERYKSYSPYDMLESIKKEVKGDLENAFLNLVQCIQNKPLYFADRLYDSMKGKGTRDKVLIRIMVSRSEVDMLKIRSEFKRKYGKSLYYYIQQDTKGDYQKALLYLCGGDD
# These are yes or no findings as the source states them, for the method shown. In cells and extracts the contact can be indirect. Some entries that bind do so weakly or less than the wild type.
# B1: Prdx1 (protein, UniProt P35700 1-199)
# chain: MSSGNAKIGYPAPNFKATAVMPDGQFKDISLSEYKGKYVVFFFYPLDFTFVCPTEIIAFSDRADEFKKLNCQVIGASVDSHFCHLAWINTPKKQGGLGPMNIPLISDPKRTIAQDYGVLKADEGISFRGLFIIDDKGILRQITINDLPVGRSVDEIIRLVQAFQFTDKHGEVCPAGWKPGSDTIKPDVNKSKEYFSKQK
# Target: Anxa2 (mouse (endogenous in primary acinar cells and 266-6 cells)) (UniProt P07356)
# Assay: co-IP; endogenous proteins in lysate of isolated primary acinar cells treated with 100 nM caerulein or PBS for 6 hours; anti-Hspb1 or anti-Anxa2 antibody, Protein A/G agarose beads, Western blot
binder,measurement,value
B1,binding,binds
